Results are given in words; binding and its absence hold for the method and conditions named. In cells and extracts the contact can be indirect. Some binding calls cover weakened binding; strength is not graded here.
Assays:
[1] = biological target: Flag-tagged N-terminal truncated ILK (ILK 171-452) (UniProt Q13418); test: co-IP; lysates of MKN45 cells transfected with pcDNA3.1-Flag-ILK constructs; coimmunoprecipitation of Flag, western blots of the indicated proteins
[2] = biological target: Flag-tagged full-length ILK (ILK 1-452) (UniProt Q13418); test: as above
[3] = biological target: Integrin-linked kinase (ILK) (human (endogenous in AGS)) (UniProt Q13418); test: co-IP; lysates of untreated AGS cells; IP with control IgG or antibodies against ILK, IQGAP1 and Ras; immunoblots of ILK, IQGAP1 and Ras; 100 ug lysate, 2 ug antibody, protein G, overnight at 4°C

Amino acid sequences for entries named in this document (tags omitted). A change or cut given only in a name is not applied to a line headed by its entry. Chains listed by the source or under a name are the forms on record and can include a tag or linker. Residues count along the entry.
UniProt Q13418: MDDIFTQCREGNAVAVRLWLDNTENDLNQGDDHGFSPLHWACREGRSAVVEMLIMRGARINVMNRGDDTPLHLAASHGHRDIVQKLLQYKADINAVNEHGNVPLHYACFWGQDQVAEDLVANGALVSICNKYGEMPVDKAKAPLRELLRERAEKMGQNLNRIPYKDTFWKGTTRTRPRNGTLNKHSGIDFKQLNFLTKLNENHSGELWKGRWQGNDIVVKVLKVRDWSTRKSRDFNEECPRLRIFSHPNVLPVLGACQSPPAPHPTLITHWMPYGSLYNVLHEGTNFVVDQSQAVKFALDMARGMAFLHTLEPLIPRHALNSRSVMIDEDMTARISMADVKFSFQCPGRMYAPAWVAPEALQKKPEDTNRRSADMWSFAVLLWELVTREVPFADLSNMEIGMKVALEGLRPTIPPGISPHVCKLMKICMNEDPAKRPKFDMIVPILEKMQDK
Flag-tagged N-terminal truncated ILK (ILK 171-452): residues 171-452 of Q13418
UniProt P46940: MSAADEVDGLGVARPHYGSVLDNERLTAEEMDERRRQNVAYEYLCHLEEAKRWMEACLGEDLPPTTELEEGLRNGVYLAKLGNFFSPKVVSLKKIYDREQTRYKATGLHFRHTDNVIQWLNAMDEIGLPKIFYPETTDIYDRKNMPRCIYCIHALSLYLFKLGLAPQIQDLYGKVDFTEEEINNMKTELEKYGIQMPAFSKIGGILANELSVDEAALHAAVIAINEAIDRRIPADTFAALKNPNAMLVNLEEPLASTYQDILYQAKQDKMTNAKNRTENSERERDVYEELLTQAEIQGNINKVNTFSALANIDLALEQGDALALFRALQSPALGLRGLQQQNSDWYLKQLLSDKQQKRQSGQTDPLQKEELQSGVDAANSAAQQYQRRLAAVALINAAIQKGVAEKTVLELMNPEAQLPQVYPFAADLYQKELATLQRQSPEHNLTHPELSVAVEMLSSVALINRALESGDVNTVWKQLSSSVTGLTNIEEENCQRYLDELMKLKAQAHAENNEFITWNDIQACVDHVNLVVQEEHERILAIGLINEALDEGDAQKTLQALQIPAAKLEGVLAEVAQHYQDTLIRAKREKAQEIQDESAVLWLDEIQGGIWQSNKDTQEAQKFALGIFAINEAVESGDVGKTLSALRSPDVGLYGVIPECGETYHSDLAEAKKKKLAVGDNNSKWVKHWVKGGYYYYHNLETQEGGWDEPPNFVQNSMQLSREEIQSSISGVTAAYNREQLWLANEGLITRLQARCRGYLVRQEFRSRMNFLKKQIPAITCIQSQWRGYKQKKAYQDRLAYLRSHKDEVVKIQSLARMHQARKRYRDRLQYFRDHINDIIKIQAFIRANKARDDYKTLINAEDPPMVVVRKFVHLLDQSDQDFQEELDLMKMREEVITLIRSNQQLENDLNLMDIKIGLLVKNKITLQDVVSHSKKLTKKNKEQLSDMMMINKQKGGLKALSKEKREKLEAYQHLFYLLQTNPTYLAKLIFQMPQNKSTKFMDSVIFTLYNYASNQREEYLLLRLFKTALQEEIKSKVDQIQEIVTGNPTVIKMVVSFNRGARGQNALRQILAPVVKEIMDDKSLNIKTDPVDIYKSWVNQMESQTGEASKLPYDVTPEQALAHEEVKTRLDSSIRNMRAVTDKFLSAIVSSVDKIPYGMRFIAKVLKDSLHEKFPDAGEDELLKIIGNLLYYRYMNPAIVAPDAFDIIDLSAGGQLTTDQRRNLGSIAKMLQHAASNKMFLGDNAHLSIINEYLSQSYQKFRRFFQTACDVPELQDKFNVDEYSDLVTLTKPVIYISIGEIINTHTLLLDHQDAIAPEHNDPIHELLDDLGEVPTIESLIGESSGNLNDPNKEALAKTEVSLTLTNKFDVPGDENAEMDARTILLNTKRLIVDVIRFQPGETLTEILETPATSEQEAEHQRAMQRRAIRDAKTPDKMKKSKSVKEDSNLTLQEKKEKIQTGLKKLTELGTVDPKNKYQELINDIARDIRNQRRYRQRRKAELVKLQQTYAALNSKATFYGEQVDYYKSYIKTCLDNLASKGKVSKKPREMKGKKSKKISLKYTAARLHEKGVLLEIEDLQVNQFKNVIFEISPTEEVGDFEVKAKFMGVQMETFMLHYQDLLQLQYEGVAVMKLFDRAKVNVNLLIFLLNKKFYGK

Measured: binding

IQ motif-containing GTPase-activating protein 1 (IQGAP1) (from UniProt P46940 1-1657)
binds: [1] | [2] | [3]

Reference: PMC4255431
